Assay results taken from paper PMC7850899, “Nutrient transceptors physically interact with the yeast S6/protein kinase B homolog, Sch9, a TOR kinase target” (Biochemical Journal, 2021).
No constants are given. Whether binding was seen depends on the method and setting. Some results given as binding are weak or reduced against the parent protein; the word gives no strength. Tags and fused reporters may be left off the sequences shown.

Protein sequences, listed by entry. Tags and fused reporters are not part of them. Lines headed by an entry give the natural chain unless they say otherwise; changes in a name come on top.
UniProt P19145: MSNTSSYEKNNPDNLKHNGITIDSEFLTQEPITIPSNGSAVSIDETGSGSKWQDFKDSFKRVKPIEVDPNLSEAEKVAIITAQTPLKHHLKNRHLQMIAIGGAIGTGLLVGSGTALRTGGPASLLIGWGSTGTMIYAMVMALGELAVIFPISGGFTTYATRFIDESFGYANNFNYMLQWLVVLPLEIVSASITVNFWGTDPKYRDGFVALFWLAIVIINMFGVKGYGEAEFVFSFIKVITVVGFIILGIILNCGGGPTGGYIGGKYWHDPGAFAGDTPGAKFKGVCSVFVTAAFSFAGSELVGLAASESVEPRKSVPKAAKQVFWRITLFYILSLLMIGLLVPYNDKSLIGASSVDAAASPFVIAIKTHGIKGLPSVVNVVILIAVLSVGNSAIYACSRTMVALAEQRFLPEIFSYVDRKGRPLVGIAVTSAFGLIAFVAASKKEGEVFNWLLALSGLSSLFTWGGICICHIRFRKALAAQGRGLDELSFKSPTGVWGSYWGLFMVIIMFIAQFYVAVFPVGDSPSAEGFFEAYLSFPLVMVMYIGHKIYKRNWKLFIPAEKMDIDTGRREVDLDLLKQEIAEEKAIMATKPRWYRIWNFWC

Assays:
[1] = target: T1, Gap1 peptide 222-…-236 (S. cerevisiae); assay: peptide or protein array; PEPperCHIP Gap1 peptide microarray, 602 peptides of 15 residues with 14 overlap, in duplicate; 50 or 100 µg/ml GST-Sch9 or GST, 16 h at 4°C; detected with anti-GST DyLight680; both purified
T1 sequence (peptide): GVKGYGEAEFVFSFI

[2] = target: T1, Gap1 peptide 222-…-236 (S. cerevisiae); assay: peptide or protein array; PEPperCHIP substitution scan of …, 300 peptides in triplicate; 100 or 500 µg/ml GST-Sch9 or GST, 16 h at 4°C; detected with anti-GST DyLight680; both purified
[3] = target: T2, Gap1 peptide 222-236 with F233 replaced by D (substitution scan) (S. cerevisiae) (UniProt P19145); assay: as above
T2 sequence (peptide): GVKGYGEAEFVDSFI

[4] = target: T3, Gap1 peptide 222-236 with S234 replaced by I (substitution scan) (S. cerevisiae) (UniProt P19145); assay: as above
T3 sequence (peptide): GVKGYGEAEFVFIFI

[5] = target: T4, Gap1 peptide 222-236 with S234 replaced by F (substitution scan) (S. cerevisiae) (UniProt P19145); assay: as above
T4 sequence (peptide): GVKGYGEAEFVFFFI

[6] = target: T5, Gap1 peptide 222-236 with F231 replaced by D (substitution scan) (S. cerevisiae) (UniProt P19145); assay: as above
T5 sequence (peptide): GVKGYGEAEDVFSFI

[7] = target: T6, Gap1 peptide 222-236 with V232 replaced by K (substitution scan) (S. cerevisiae) (UniProt P19145); assay: as above
T6 sequence (peptide): GVKGYGEAEFKFSFI

[8] = target: T7, Gap1 peptide 222-236 with S234 replaced by L (substitution scan) (S. cerevisiae) (UniProt P19145); assay: as above
T7 sequence (peptide): GVKGYGEAEFVFLFI

[9] = target: T8, Gap1 peptide 222-236 with V232 replaced by F (substitution scan) (S. cerevisiae) (UniProt P19145); assay: as above
T8 sequence (peptide): GVKGYGEAEFFFSFI

[10] = target: T9, Gap1 peptide 222-236 with S234 replaced by C (substitution scan) (S. cerevisiae) (UniProt P19145); assay: as above
T9 sequence (peptide): GVKGYGEAEFVFCFI

binding [1]: binds
binding [2]: binds
binding [4]: binds
binding [5]: binds
binding [8]: binds
binding [9]: binds
binding [10]: binds
B1: GST-tagged Sch9 (GST-Sch9) (enzyme, S. cerevisiae, UniProt P11792 1-824, looked up)
chain: MMNFFTSKSSNQDTGFSSQHQHPNGQNNGNNNSSTAGNDNGYPCKLVSSGPCASSNNGALFTNFTLQTATPTTAISQDLYAMGTTGITSENALFQMKSMNNGISSVNNNNSNTPTIITTSQEETNAGNVHGDTGGNSLQNSEDDNFSSSSTTKCLLSSTSSLSINQREAAAAAYGPDTDIPRGKLEVTIIEARDLVTRSKDSQPYVVCTFESSEFISNGPESLGAINNNNNNNNNNQHNQNQHINNNNENTNPDAASQHHNNNSGWNGSQLPSIKEHLKKKPLYTHRSSSQLDQLNSCSSVTDPSKRSSNSSSGSSNGPKNDSSHPIWHHKTTFDVLGSHSELDISVYDAAHDHMFLGQVRLYPMIHNLAHASQHQWHSLKPRVIDEVVSGDILIKWTYKQTKKRHYGPQDFEVLRLLGKGTFGQVYQVKKKDTQRIYAMKVLSKKVIVKKNEIAHTIGERNILVTTASKSSPFIVGLKFSFQTPTDLYLVTDYMSGGELFWHLQKEGRFSEDRAKFYIAELVLALEHLHDNDIVYRDLKPENILLDANGNIALCDFGLSKADLKDRTNTFCGTTEYLAPELLLDETGYTKMVDFWSLGVLIFEMCCGWSPFFAENNQKMYQKIAFGKVKFPRDVLSQEGRSFVKGLLNRNPKHRLGAIDDGRELRAHPFFADIDWEALKQKKIPPPFKPHLVSETDTSNFDPEFTTASTSYMNKHQPMMTATPLSPAMQAKFAGFTFVDESAIDEHVNNNRKFLQNSYFMEPGSFIPGNPNLPPDEDVIDDDGDEDINDGFNQEKNMNNSHSQMDFDGDQHMDDEFVSGRFEI
notes: Sch9 protein kinase of yeast, expressed from pGEX-Sch9 (pGEX-4T-1-Sch9); Plasmid from J. Bergsma; also called GST-Sch9p; source: purified from E. coli (peptide microarrays); not shown: GST, N-terminal, kept
binding [3]: no binding (tested: 100 or 500 µg/ml GST-Sch9)
binding [6]: no binding (tested: 100 or 500 µg/ml GST-Sch9)
binding [7]: no binding (tested: 100 or 500 µg/ml GST-Sch9)
